Source: the supplement of paper PMC12823440, “Inhibitors supercharge kinase turnover through native proteolytic circuits” (Nature, 2025)
Where a name gives a salt, the structure may show the parent alone. Some of the results follow. Hit calls seldom repeat between salt and free forms of one compound.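 Kinases were expressed as nanoluciferase fusions in K562 cells and luminescence was read every 4 h between 2 and 18 h as percent of control, DMSO set to 100% and a positive control to 0%. A time point counts as decreased when the signal drops significantly (2 sigma). The hit call is the authors' own, does not follow from the count of time points alone, and its rule is not shown.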

The chains behind the UniProt entries cited, without tags or fusion partners. Where a name states a change or a piece, a line headed by the entry shows the natural chain unless it says otherwise.
UniProt P21860, whole entry: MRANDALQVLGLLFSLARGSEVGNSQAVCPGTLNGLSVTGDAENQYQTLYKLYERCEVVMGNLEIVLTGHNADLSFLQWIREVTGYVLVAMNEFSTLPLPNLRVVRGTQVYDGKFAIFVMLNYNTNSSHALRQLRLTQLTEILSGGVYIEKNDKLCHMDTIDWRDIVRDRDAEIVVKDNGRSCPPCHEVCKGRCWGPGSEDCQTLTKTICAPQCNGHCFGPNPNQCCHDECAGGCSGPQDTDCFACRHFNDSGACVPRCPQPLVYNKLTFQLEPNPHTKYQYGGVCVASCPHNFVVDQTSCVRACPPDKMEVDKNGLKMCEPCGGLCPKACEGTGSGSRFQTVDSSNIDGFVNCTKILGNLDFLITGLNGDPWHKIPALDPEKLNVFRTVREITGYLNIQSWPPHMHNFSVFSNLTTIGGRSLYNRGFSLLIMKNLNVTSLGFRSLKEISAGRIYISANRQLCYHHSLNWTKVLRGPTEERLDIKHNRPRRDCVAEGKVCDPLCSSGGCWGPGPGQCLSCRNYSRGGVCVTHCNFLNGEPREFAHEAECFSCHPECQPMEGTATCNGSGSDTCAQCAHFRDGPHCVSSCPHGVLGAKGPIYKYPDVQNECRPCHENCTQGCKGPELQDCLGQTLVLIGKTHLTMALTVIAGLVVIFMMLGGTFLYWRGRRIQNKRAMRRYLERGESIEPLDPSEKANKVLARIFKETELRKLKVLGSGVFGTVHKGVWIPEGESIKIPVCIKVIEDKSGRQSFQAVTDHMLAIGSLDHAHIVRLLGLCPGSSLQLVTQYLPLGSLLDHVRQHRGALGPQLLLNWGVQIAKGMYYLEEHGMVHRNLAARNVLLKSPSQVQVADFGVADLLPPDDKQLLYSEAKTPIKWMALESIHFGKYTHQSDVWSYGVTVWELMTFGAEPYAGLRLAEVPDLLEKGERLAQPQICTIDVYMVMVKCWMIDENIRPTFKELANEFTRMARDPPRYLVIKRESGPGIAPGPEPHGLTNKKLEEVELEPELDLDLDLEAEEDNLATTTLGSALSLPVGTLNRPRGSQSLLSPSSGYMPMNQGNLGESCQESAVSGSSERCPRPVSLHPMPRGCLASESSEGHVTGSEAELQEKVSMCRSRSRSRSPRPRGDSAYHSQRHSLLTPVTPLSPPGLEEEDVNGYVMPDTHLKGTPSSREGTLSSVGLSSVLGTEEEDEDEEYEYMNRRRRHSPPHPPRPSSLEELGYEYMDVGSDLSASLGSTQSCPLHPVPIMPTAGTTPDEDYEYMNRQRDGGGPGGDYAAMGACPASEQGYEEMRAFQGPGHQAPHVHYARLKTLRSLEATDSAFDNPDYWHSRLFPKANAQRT
UniProt Q15303, whole entry R711C: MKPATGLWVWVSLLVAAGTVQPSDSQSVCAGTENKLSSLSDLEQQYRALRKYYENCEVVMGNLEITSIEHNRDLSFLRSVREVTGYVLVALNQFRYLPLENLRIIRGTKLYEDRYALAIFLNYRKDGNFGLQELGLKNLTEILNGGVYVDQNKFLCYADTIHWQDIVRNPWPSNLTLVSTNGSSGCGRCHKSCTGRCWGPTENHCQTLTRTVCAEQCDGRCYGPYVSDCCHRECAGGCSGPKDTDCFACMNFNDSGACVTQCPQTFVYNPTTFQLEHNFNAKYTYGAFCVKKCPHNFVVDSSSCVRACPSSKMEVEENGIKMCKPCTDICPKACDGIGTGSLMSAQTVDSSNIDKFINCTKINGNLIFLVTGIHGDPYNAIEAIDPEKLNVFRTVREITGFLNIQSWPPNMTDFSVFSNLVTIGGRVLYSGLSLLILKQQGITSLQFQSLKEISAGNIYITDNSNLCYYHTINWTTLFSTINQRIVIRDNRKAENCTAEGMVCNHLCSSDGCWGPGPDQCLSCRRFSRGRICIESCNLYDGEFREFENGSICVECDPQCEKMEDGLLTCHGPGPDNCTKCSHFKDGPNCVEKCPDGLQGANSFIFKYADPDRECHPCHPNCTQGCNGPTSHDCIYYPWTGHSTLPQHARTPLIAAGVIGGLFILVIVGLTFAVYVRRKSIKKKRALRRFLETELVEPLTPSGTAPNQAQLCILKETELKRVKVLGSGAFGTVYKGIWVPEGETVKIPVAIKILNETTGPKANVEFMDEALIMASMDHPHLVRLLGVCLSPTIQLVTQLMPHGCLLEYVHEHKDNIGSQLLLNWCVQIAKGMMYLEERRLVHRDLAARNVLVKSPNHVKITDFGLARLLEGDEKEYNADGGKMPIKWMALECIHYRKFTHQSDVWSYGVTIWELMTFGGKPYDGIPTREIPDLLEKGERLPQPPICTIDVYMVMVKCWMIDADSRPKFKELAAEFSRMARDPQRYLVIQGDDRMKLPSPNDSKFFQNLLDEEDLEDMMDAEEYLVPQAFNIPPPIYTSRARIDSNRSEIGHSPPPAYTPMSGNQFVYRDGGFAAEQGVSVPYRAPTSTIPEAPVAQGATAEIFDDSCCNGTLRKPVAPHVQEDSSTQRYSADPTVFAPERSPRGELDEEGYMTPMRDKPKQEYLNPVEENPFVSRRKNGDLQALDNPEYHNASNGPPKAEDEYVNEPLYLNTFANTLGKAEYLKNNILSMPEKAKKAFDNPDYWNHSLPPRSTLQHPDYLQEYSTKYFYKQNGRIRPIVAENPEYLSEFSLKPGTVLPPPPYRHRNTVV
UniProt P21802, whole entry, looked up: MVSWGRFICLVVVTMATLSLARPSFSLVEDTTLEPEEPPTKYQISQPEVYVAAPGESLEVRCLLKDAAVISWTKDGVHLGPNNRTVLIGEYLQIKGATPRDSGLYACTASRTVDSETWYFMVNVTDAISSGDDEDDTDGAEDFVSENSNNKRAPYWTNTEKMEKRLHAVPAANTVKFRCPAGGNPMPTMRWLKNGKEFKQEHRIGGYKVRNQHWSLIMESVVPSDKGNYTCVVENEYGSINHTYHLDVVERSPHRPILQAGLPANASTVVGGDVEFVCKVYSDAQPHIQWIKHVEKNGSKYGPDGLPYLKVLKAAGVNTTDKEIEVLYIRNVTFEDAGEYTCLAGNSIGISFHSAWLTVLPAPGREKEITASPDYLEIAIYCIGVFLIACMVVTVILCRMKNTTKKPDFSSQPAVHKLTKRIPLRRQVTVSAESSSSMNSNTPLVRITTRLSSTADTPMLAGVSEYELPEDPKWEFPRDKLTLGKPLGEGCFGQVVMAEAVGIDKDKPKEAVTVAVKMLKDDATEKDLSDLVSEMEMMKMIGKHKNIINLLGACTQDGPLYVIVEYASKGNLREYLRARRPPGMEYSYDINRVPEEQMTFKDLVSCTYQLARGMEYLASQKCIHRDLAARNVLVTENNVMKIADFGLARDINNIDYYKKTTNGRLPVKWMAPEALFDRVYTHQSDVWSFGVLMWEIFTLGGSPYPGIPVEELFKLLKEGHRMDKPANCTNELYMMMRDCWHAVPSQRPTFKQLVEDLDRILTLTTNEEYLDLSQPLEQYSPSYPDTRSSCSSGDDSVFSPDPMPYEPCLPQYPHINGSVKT
UniProt P22607, whole entry, looked up: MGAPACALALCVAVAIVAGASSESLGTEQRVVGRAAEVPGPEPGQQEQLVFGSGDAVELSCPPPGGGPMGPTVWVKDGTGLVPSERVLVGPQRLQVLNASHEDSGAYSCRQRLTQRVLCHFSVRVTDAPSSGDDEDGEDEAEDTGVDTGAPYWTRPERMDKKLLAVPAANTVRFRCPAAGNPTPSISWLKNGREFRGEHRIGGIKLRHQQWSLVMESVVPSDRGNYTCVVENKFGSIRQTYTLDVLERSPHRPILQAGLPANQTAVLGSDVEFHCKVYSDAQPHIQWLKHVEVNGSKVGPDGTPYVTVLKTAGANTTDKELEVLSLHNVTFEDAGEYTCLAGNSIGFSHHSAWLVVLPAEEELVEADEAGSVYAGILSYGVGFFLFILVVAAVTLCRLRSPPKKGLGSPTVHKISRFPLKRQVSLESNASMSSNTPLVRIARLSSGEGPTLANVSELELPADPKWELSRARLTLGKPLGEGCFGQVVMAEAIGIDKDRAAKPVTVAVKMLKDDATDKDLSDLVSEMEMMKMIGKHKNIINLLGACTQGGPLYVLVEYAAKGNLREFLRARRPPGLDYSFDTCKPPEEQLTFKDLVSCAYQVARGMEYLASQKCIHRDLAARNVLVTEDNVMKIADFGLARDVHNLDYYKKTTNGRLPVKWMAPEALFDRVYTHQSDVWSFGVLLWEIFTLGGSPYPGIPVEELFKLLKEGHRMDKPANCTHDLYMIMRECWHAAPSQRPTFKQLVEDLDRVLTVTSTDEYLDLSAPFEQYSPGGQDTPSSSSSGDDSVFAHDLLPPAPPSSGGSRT
UniProt P36888, whole entry: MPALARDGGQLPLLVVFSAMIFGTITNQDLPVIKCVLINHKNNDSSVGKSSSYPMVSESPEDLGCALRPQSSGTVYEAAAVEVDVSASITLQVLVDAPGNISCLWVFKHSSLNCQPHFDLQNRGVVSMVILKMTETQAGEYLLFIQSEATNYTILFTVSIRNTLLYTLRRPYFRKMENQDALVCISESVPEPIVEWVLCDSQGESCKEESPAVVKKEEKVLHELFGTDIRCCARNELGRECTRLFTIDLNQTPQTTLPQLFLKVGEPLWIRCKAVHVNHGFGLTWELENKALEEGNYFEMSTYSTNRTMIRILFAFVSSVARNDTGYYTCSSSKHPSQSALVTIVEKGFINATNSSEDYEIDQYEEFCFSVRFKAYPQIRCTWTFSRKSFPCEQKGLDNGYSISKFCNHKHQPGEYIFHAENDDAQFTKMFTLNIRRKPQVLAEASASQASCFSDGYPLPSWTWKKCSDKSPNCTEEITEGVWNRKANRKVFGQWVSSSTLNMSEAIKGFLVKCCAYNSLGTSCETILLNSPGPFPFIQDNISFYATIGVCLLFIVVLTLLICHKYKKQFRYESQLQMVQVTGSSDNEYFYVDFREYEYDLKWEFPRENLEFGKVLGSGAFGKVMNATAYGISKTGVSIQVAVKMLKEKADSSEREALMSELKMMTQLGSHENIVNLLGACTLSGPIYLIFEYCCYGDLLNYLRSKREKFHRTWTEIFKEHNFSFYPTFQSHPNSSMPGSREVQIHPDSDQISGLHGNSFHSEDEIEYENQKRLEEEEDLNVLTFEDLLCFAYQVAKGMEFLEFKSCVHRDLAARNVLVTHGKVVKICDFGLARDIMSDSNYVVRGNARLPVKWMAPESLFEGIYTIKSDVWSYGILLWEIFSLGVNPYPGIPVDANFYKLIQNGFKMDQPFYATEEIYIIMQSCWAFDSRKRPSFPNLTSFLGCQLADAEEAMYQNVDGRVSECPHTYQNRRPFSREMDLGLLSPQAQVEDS
UniProt P14616: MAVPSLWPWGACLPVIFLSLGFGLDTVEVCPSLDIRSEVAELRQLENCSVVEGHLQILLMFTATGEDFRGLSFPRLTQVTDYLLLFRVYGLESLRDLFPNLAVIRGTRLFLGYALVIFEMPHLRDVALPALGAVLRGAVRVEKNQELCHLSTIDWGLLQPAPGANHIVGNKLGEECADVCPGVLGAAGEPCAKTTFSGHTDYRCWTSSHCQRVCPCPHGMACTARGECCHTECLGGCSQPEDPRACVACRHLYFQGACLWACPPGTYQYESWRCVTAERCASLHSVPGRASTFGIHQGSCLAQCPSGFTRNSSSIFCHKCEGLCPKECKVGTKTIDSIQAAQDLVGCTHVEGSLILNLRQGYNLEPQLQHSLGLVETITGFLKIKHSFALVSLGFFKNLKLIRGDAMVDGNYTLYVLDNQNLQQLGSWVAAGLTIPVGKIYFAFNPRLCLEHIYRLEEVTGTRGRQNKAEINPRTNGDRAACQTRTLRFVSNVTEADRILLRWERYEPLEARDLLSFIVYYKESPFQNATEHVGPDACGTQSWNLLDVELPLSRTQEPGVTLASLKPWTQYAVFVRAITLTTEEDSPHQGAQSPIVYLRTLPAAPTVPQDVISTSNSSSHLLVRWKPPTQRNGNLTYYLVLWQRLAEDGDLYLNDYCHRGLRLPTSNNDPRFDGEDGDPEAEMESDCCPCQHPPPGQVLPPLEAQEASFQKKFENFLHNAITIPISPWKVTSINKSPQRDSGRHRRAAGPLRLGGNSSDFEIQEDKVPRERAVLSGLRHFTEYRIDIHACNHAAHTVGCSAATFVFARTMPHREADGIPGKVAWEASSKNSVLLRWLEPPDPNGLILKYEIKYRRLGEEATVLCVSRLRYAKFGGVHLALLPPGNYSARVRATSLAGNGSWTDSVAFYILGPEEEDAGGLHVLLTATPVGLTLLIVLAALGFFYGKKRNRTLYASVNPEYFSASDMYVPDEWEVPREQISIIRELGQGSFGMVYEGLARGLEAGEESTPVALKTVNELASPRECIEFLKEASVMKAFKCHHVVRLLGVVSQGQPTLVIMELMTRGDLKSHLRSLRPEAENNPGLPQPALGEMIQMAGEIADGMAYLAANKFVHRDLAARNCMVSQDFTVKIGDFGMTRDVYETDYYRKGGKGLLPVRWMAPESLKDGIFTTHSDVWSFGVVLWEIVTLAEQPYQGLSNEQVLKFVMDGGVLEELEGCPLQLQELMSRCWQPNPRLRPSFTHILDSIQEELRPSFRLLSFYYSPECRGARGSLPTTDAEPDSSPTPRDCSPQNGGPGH

Key:
Assay in all cases: kinase-Nluc reporter destabilization hit call (1 = scored as downregulated) (binary); higher = compound decreases kinase abundance
Conditions in all cases: K562; 2-18 h
[1] = molecular target: EGFR (UniProt P00533)
[2] = molecular target: EGFR_G719S (UniProt P00533)
[3] = molecular target: EGFR_G719S_T790M (UniProt P00533)
[4] = molecular target: EGFR_L718V (UniProt P00533)
[5] = molecular target: EGFR_L858R (UniProt P00533)
[6] = molecular target: EGFR_L861Q (UniProt P00533)
[7] = molecular target: EGFR_T790M (UniProt P00533)
[8] = molecular target: EPHA2 (UniProt P29317)
[9] = molecular target: ERBB3 (UniProt P21860)
[10] = molecular target: ERBB4_R711C (clone: ERBB4_mut) (UniProt Q15303)
[11] = molecular target: ERN1 (UniProt O75460)
[12] = molecular target: FGFR1 (UniProt P11362)
[13] = molecular target: FGFR2 (UniProt P21802)
[14] = molecular target: FGFR3 (UniProt P22607)
[15] = molecular target: FGR (UniProt P09769)
[16] = molecular target: FLT3 (UniProt P36888)
[17] = molecular target: FYN (UniProt P06241)
[18] = molecular target: GSK3A (UniProt P49840)
[19] = molecular target: HER2 (UniProt P04626)
[20] = molecular target: INSRR (UniProt P14616)

Measured: kinase-Nluc reporter destabilization hit call

C=CC(=O)Nc1cc(C(=O)NC)cc(-c2n[nH]c3ccccc23)c1 (10 µM)
inactive: [1] 0 | [2] 0 | [3] 0 | [4] 0 | [5] 0 | [6] 0 | [7] 0 | [8] 0 | [9] 0 | [10] 0 | [11] 0 | [12] 0 | [13] 0 | [14] 0 | [15] 0 | [16] 0 | [17] 0 | [18] 0 | [19] 0 | [20] 0

Cc1occ2c1C(=O)c1c(O)ccc(O)c1C2 (2.5 µM)
inactive: [1] 0 | [2] 0 | [3] 0 | [4] 0 | [5] 0 | [6] 0 | [7] 0 | [8] 0 | [9] 0 | [10] 0 | [11] 0 | [12] 0 | [13] 0 | [14] 0 | [15] 0 | [16] 0 | [17] 0 | [18] 0 | [19] 0 | [20] 0

O=c1cc(-c2ccc(O)cc2)oc2cc(O)c(O)c(O)c12 [Scutellarein] (10 µM)
inactive: [1] 0 | [2] 0 | [3] 0 | [4] 0 | [5] 0 | [6] 0 | [7] 0 | [8] 0 | [9] 0 | [10] 0 | [11] 0 | [12] 0 | [13] 0 | [14] 0 | [15] 0 | [16] 0 | [17] 0 | [18] 0 | [19] 0 | [20] 0

COc1cc(/C=C/c2ccc(NC(=O)/C=C/c3cc(OC)c(OC)c(OC)c3)cc2)cc(OC)c1 (2.5 µM)
inactive: [1] 0 | [2] 0 | [3] 0 | [4] 0 | [5] 0 | [6] 0 | [7] 0 | [8] 0 | [9] 0 | [10] 0 | [11] 0 | [12] 0 | [13] 0 | [14] 0 | [15] 0 | [16] 0 | [17] 0 | [18] 0 | [19] 0 | [20] 0

CCn1c2ccccc2c2cc(Nc3ccnc(NCCCN4CCOCC4)n3)ccc21 (2.5 µM)
inactive: [1] 0 | [2] 0 | [3] 0 | [4] 0 | [5] 0 | [6] 0 | [7] 0 | [8] 0 | [9] 0 | [10] 0 | [11] 0 | [12] 0 | [13] 0 | [14] 0 | [15] 0 | [16] 0 | [17] 0 | [18] 0 | [19] 0 | [20] 0

O=C(Nc1nccs1)C(c1cc(F)ccc1O)N1Cc2ccc(-c3ccc(N4CCNCC4)cc3)cc2C1=O (racemic) (10 µM)
inactive: [1] 0 | [2] 0 | [3] 0 | [4] 0 | [5] 0 | [6] 0 | [7] 0 | [8] 0 | [9] 0 | [10] 0 | [11] 0 | [12] 0 | [13] 0 | [14] 0 | [15] 0 | [16] 0 | [17] 0 | [18] 0 | [19] 0 | [20] 0

CC(=O)NCC(=O)N[C@@H](C)C(=O)N[C@@H](CCC(N)=O)C(=O)N[C@@H](Cc1ccccc1)C(=O)N[C@@H](CO)C(=O)N[C@@H](CCCCN)C(=O)N[C@H](C(=O)N[C@@H](C)C(=O)N[C@@H](C)C(=O)N[C@@H](CCCCN)C(=O)O)[C@@H](C)O (10 µM)
inactive: [1] 0 | [2] 0 | [3] 0 | [4] 0 | [5] 0 | [6] 0 | [7] 0 | [8] 0 | [9] 0 | [10] 0 | [11] 0 | [12] 0 | [13] 0 | [14] 0 | [15] 0 | [16] 0 | [17] 0 | [18] 0 | [19] 0 | [20] 0

CCc1nc(C(N)=O)c(Nc2ccc(N3CCC(N4CCN(C)CC4)CC3)c(OC)c2)nc1NC1CCC(OC)CC1 (stereo not given) [EML4-ALK kinase inhibitor 1] (2.5 µM)
inactive: [1] 0 | [2] 0 | [3] 0 | [4] 0 | [5] 0 | [6] 0 | [7] 0 | [8] 0 | [9] 0 | [10] 0 | [11] 0 | [12] 0 | [13] 0 | [14] 0 | [15] 0 | [16] 0 | [17] 0 | [18] 0 | [19] 0 | [20] 0

COc1ncc2cc(C(=O)Nc3cc(C(=O)NCc4cccc(Cl)c4)ccc3Cl)c(=O)[nH]c2n1 (2.5 µM)
inactive: [1] 0 | [2] 0 | [3] 0 | [4] 0 | [5] 0 | [6] 0 | [7] 0 | [8] 0 | [9] 0 | [10] 0 | [11] 0 | [12] 0 | [13] 0 | [14] 0 | [15] 0 | [16] 0 | [17] 0 | [18] 0 | [19] 0 | [20] 0

CCc1ccc(NC(=O)Nc2ccccc2)cc1 (10 µM)
inactive: [1] 0 | [2] 0 | [3] 0 | [4] 0 | [5] 0 | [6] 0 | [7] 0 | [8] 0 | [9] 0 | [10] 0 | [11] 0 | [12] 0 | [13] 0 | [14] 0 | [15] 0 | [16] 0 | [17] 0 | [18] 0 | [19] 0 | [20] 0

O=C1C(=Cc2ccc(O)c(O)c2)Oc2ccccc21 (2.5 µM)
inactive: [1] 0 | [2] 0 | [3] 0 | [4] 0 | [5] 0 | [6] 0 | [7] 0 | [8] 0 | [9] 0 | [10] 0 | [11] 0 | [12] 0 | [13] 0 | [14] 0 | [15] 0 | [16] 0 | [17] 0 | [18] 0 | [19] 0 | [20] 0

CC(C)(C)c1ccc(C(=O)Nc2cn3cc(-n4ccnc4)ccc3n2)cc1 (10 µM)
inactive: [1] 0 | [2] 0 | [3] 0 | [4] 0 | [5] 0 | [6] 0 | [7] 0 | [8] 0 | [9] 0 | [10] 0 | [11] 0 | [12] 0 | [13] 0 | [14] 0 | [15] 0 | [16] 0 | [17] 0 | [18] 0 | [19] 0 | [20] 0

Cn1cc(C2=C(c3c4n(c5ccccc35)CCC(CN)C4)C(=O)NC2=O)c2ccccc21 (stereo not given) [Bisindolylmaleimide X (hydrochloride)] (2.5 µM)
inactive: [1] 0 | [2] 0 | [3] 0 | [4] 0 | [5] 0 | [6] 0 | [7] 0 | [8] 0 | [9] 0 | [10] 0 | [11] 0 | [12] 0 | [13] 0 | [14] 0 | [15] 0 | [16] 0 | [17] 0 | [18] 0 | [19] 0 | [20] 0

CCCCCC1CC1CC1CC1CCCCCCCC(=O)O (stereo not given) (10 µM)
inactive: [1] 0 | [2] 0 | [3] 0 | [4] 0 | [5] 0 | [6] 0 | [7] 0 | [8] 0 | [9] 0 | [10] 0 | [11] 0 | [12] 0 | [13] 0 | [14] 0 | [15] 0 | [16] 0 | [17] 0 | [18] 0 | [19] 0 | [20] 0

CCN1C(C)(C)CC(Oc2ccc(C(=O)Nc3ccc(NC(=O)Nc4cc(C(C)(C)C)on4)cc3)nc2)CC1(C)C (10 µM)
inactive: [1] 0 | [2] 0 | [3] 0 | [4] 0 | [5] 0 | [6] 0 | [7] 0 | [8] 0 | [9] 0 | [10] 0 | [11] 0 | [12] 0 | [13] 0 | [14] 0 | [15] 0 | [16] 0 | [17] 0 | [18] 0 | [19] 0 | [20] 0

CC1=C(C(=O)Nc2ccc3[nH]ncc3c2)C(c2ccc(F)c(C(=O)NCc3ccccn3)c2)NC(=O)N1 (stereo not given) (10 µM)
inactive: [1] 0 | [2] 0 | [3] 0 | [4] 0 | [5] 0 | [6] 0 | [7] 0 | [8] 0 | [9] 0 | [10] 0 | [11] 0 | [12] 0 | [13] 0 | [14] 0 | [15] 0 | [16] 0 | [17] 0 | [18] 0 | [19] 0 | [20] 0

CN1CCN(c2ccc(NC(=O)c3ccc(C#N)o3)c(N3CCCCC3)c2)CC1 (10 µM)
inactive: [1] 0 | [2] 0 | [3] 0 | [4] 0 | [5] 0 | [6] 0 | [7] 0 | [8] 0 | [9] 0 | [10] 0 | [11] 0 | [12] 0 | [13] 0 | [14] 0 | [15] 0 | [16] 0 | [17] 0 | [18] 0 | [19] 0 | [20] 0

As a short view, 2 of the compounds above:
CCCCCC1CC1CC1CC1CCCCCCCC(=O)O (stereo not given) (10 µM)
inactive: [1] 0 | [2] 0 | [3] 0 | [4] 0 | [5] 0 | [6] 0 | [7] 0 | [8] 0 | [9] 0 | [10] 0 | [11] 0 | [12] 0 | [13] 0 | [14] 0 | [15] 0 | [16] 0 | [17] 0 | [18] 0 | [19] 0 | [20] 0

CCN1C(C)(C)CC(Oc2ccc(C(=O)Nc3ccc(NC(=O)Nc4cc(C(C)(C)C)on4)cc3)nc2)CC1(C)C (10 µM)
inactive: [1] 0 | [2] 0 | [3] 0 | [4] 0 | [5] 0 | [6] 0 | [7] 0 | [8] 0 | [9] 0 | [10] 0 | [11] 0 | [12] 0 | [13] 0 | [14] 0 | [15] 0 | [16] 0 | [17] 0 | [18] 0 | [19] 0 | [20] 0

The listing continues.

C1=N/C2=N/c3ccc(OCCN4CCCC4)c(c3)COC/C=C/COCc3cccc(c3)C(=C1)N2 [Pacritinib] (2.5 µM)
inactive: [1] 0 | [2] 0 | [3] 0 | [4] 0 | [5] 0 | [6] 0 | [7] 0 | [8] 0 | [9] 0 | [10] 0 | [11] 0 | [12] 0 | [13] 0 | [14] 0 | [15] 0 | [16] 0 | [17] 0 | [18] 0 | [19] 0 | [20] 0
